Molecules are shown by their SMILES.

The assay relates to monoclonal mouse anti-morphine IgG1 (α-M Ab). The assay can be described thus: Label-free porous silicon. As to conditions: read-out: EC50 (effective concentration where 50% of signal response was attained); α-M Ab 1.83 μM (15 μl); morphine in urine 15 μl.

`CN1CC[C@]23c4c5ccc(O)c4O[C@H]2[C@@H](O)C=C[C@H]3[C@H]1C5` [morphine, Morphine]: the EC50 came out at 1.36 µM.

The values above are taken from article PMC2814343 (Analytical chemistry, 2010).
